# Screen size: about 300,000 compounds; about 5,400 (1.8%) were called active. The inconclusive results got no clear call from the source; some entries with a clear call stand among them for comparison. The call rests on the fitted dose curve; tested in HEK293 cells. Potencies of inconclusive entries are doubtful fits and often do not repeat.
# Experiment: qHTS for inhibitors of binding or entry into cells for Marburg Virus
# Conditions: Marburg virus pseudotyped entry inhibition, cell reporter; series mostly up to 37.8 µM
# Potency means the concentration at half of the fitted maximal effect.
row,SMILES,Potency
1,CCC(C)(C)NC(=O)C(c1cccc(OC)c1OC)N(CCOC)C(=O)CCC(=O)Nc1cc(C)on1 (configuration not stated),inactive
2,CNC(=O)c1ccsc1NC(=O)CCS(=O)(=O)c1ccccc1,inactive
3,Cc1ccc(N=C2NC(=O)CC(C(=O)Nc3ccc4c(c3)OCO4)S2)cc1 (configuration not stated),"inconclusive: 35.5 µM [inhibitor, single point]"
4,CC1(C)Cc2nc3oc4c(=O)n(CC(=O)Nc5ccccc5)cnc4c3cc2CO1,inactive
5,Cc1ccccc1OCCCCn1c(CCNC(=O)C(C)(C)C)nc2ccccc21,"inconclusive: 35.5 µM [inhibitor, single point]"
6,CCCS(=O)(=O)N1CCC(C(=O)NCCCOC)CC1,inactive
7,Nc1ccc(C(=O)Nc2ccc(OC(F)(F)C(F)F)c(NC(=O)c3ccc(N)cc3)c2)cc1,inactive
8,O=C(CCc1ccccc1)Nc1cc(C(F)(F)F)ccc1Cl,"inconclusive: 6.51 µM [inhibitor, single point]"
9,CCOC(=O)C1=C(C)NC(=S)NC1c1ccc(-c2cccc(Cl)c2C)o1 (configuration not stated),"inconclusive: 17.8 µM [inhibitor, single point]"
10,CC1(C)Cc2c(C#N)c(N3CCN(C(=O)c4ccccc4)CC3)nc(-c3ccco3)c2CS1,inactive
11,Cc1nn(-c2ccc(Cl)cc2)c2nc(-c3cccnc3)cc(C(F)(F)F)c12,inactive
12,CC(OC(=O)CCN1C(=O)c2cccc([N+](=O)[O-])c2C1=O)C(=O)Nc1cc(Cl)cc(Cl)c1 (configuration not stated),"inconclusive: 0.461 µM [activator, single point]"
13,C=CCN(CC=C)C(=O)c1ccc2nc(Cc3ccc(OC)c(OC)c3)oc2c1,"inconclusive: 8.91 µM [inhibitor, partial curve]"
14,Clc1ccc(-n2ncc3c(NCCCn4ccnc4)ncnc32)cc1,"inconclusive: 4.61 µM [activator, single point]"
15,O=C(/C=C/c1ccccc1)N1CCN(S(=O)(=O)c2ccc(F)cc2)CC1,"inconclusive: 6.31 µM [activator, single point]"
16,Cc1ccc(NS(=O)(=O)c2ccc(Cl)c(NC(=S)NC(=O)C3CCCCC3)c2)cc1Cl,"inconclusive: 11.2 µM [inhibitor, single point]"
17,CCN(c1cccc(C)c1)S(=O)(=O)c1csc(C(N)=O)c1,inactive
18,COc1ccccc1-c1nnc(NC(=O)CCS(=O)(=O)c2ccccc2)o1,inactive
19,O=C(CCCN1C(=O)/C(=C/c2ccccc2OC(F)F)SC1=S)Nc1cccnc1,"inconclusive: 20 µM [inhibitor, single point]"
20,CCCN(Cc1nnc(-c2ccccc2Cl)o1)C(=O)COc1ccc(Cl)cc1,"inconclusive: 11.2 µM [inhibitor, single point]"
21,CS(=O)(=O)N(CC(=O)NC1CCCC1)C1CCCCC1,inactive
22,C=CCOc1ccc(C(=O)NC2CCCCC2)cc1,"inconclusive: 3.16 µM [activator, single point]"
23,CC(C)N(Cc1ccccc1)C(=O)Cn1ncc2c3ccccc3n(Cc3ccccc3)c2c1=O,inactive

row,SMILES,Potency
1,Cc1ccc(C(=O)NCC(=O)NCC(=O)OCC(=O)c2ccc([N+](=O)[O-])cc2)cc1,"inconclusive: 16.4 µM [inhibitor, single point]"
2,CCn1cc(C(=O)O)c(=O)c2cc(F)c(N3CCNC(C)C3)c(F)c21 (configuration not stated),"inconclusive: 12.6 µM [inhibitor, single point]"
3,Cc1ccc(NCc2ccccc2F)cc1,inactive
4,O=C1NC(=O)N(Cc2ccccc2)C(=O)C1Cc1ccccc1 (configuration not stated),"inconclusive: 12.6 µM [activator, single point]"
5,O=C(N/N=C/c1ccccc1[N+](=O)[O-])C(=O)N1CCCC1,inactive
6,O=C(NC(=S)NCCC1=CCCCC1)c1ccccc1Br,"inconclusive: 11.2 µM [inhibitor, partial curve, poor fit]"
7,CCN(CC)CCCNC(=O)c1ccc(Cn2c(=O)[nH]c3cc(OC)c(OC)cc3c2=O)cc1,"inconclusive: 20 µM [activator, single point]"
8,COc1cc(Cl)c(C)cc1NC(=O)CCc1nc2cccnc2n1Cc1cccs1,"inconclusive: 7.08 µM [inhibitor, partial curve, poor fit]"
9,COc1cc(/C=C/C(=O)OCC(=O)NCCc2ccc(S(N)(=O)=O)cc2)ccc1OCC#N,inactive
10,Cc1cc(CN(C)C(=O)C2CCC(=O)N(CCc3cccc(F)c3)C2)on1 (configuration not stated),"inconclusive: 35.5 µM [activator, single point]"
11,FC(F)Sc1ccc(NC(=S)N2CCN(c3ccccn3)CC2)cc1,"inconclusive: 35.5 µM [inhibitor, single point]"
12,C=CCNC(=S)N1CCC(C(N)=O)CC1,"inconclusive: 0.891 µM [inhibitor, full curve, poor fit]"
13,Cc1cn(C2CC(O)C(CO)O2)c(=O)n(Cc2ccccc2)c1=O (configuration not stated),"inconclusive: 6.31 µM [activator, single point]"
14,CC(C)CCNc1nnnc2c1sc1nc(N3CCOCC3)c3c(c12)CC(C)(C)SC3,inactive
15,Cc1c(C(=O)Nc2cccc(S(=O)(=O)N3CCOCC3)c2)oc2ccccc12,"inconclusive: 35.5 µM [inhibitor, single point]"
16,COc1ccc(CNC(=O)c2ccc(N(C)S(=O)(=O)c3ccc(C)cc3)cc2)cc1,"inconclusive: 10 µM [inhibitor, partial curve, poor fit]"
17,Cc1ccc(C(=O)OCc2nc3ccsc3c(=O)[nH]2)o1,"inconclusive: 1.26 µM [inhibitor, single point]"
18,CCOC(=O)c1c(NC(=O)c2ccco2)sc2c1CCCC2,inactive
19,COc1ccc(NC(=O)c2sc(N3CCOCC3)nc2-c2ccccc2)c(OC)c1,"inconclusive: 35.5 µM [inhibitor, single point]"
20,O=C(O)c1cccc(NC(=S)NC(=O)c2ccc(-c3ccc(Cl)cc3)o2)c1,"inconclusive: 35.5 µM [inhibitor, single point]"
21,Cc1ccc2nc(-c3cccc(NC(=O)c4ccc5c(c4)OCCO5)c3)oc2c1,inactive
22,O=S(=O)(c1ccc(OCC(O)CNC23CC4CC(CC(C4)C2)C3)c(Cl)c1)N1CCOCC1 (configuration not stated),active: 2 µM
23,CCOc1ccc(N(C)S(=O)(=O)c2ccc(C)c(C(=O)NCCc3ccc(OC)cc3)c2)cc1,"inconclusive: 12.6 µM [inhibitor, partial curve, poor fit]"

row,SMILES,Potency
1,Cc1onc(-c2ccccc2)c1-c1csc(N/N=C/c2ccccc2)n1,"inconclusive: 20 µM [inhibitor, single point]"
2,O=C(Cc1cn(Cc2cccc(Cl)c2)c2ccccc12)N1CCCCCC1,"inconclusive: 15.8 µM [inhibitor, partial curve, poor fit]"
3,Cc1ccc(NC(=O)CSCC(=O)N(CCC(C)C)c2c(N)n(Cc3ccccc3)c(=O)[nH]c2=O)cc1,"inconclusive: 3.16 µM [inhibitor, full curve, poor fit]"
4,Cc1ccc(C(=O)NCc2ccco2)cc1S(=O)(=O)N1CCCCC1,inactive
5,CS(=O)(=O)Nc1ccc([N+](=O)[O-])cc1Oc1ccccc1,"inconclusive: 3.55 µM [inhibitor, partial curve, poor fit]"
6,Cc1cc(C)cc(-n2c(C)cc(/C=C3\C(=O)NC(=O)N(C)C3=O)c2C)c1,"inconclusive: 35.5 µM [activator, single point]"
7,O=C(CNCC1CCCCC1)Nc1ccccc1N1CCCCC1,inactive
8,O=C(C=NO)NCCCCNC(=O)C=NO,"inconclusive: 0.944 µM [activator, single point]"
9,Fc1ccc(C(NCCc2ccccc2)c2nnc(-c3ccccc3Cl)o2)cc1 (configuration not stated),"inconclusive: 22.4 µM [inhibitor, single point]"
10,Cc1ccc(-n2c(=O)c3c4c(sc3n(CC(=O)Nc3cccc(Cl)c3)c2=O)CCCCC4)cc1C,"inconclusive: 6.31 µM [activator, partial curve, poor fit]"
11,CCc1cc(C(=O)OC)c(NC(=O)CSc2nccn2C)s1,inactive
12,COC(=O)c1ccc(C(=O)OC)c(NC(=O)CCc2ccc(C)o2)c1,"inconclusive: 12.6 µM [activator, single point]"
13,COc1ccc(-c2noc(=O)n2Cc2ccc(F)cc2Cl)cc1,"inconclusive: 35.5 µM [inhibitor, partial curve, poor fit]"
14,O=C(c1cc(-c2ccc(Cl)c(Cl)c2)on1)N1CCOCC1,"inconclusive: 0.891 µM [activator, full curve, poor fit]"
15,O=C(c1ccccc1)N1CCCC(C(=O)N2CCN(c3ccccc3)CC2)C1 (configuration not stated),"inconclusive: 35.5 µM [inhibitor, single point]"
16,O=C(COc1cc(Cl)ccc1Cl)Nc1ccc2[nH]c(=O)[nH]c2c1,"inconclusive: 14.1 µM [inhibitor, partial curve, poor fit]"
17,CCCCNC(=O)c1c(N)n(Cc2ccc3c(c2)OCO3)c2nc3ccccc3nc12,"inconclusive: 10.3 µM [inhibitor, partial curve, poor fit]"
18,Cc1oc(-c2ccc(Cl)cc2)nc1CS(=O)CC(=O)NCCCN1CCCC(C)C1 (configuration not stated),"inconclusive: 10 µM [inhibitor, partial curve, poor fit]"
19,Clc1ccc(SCCCCN2CCNCC2)cc1,"inconclusive: 5.17 µM [inhibitor, partial curve, poor fit]"
20,O=C(NC12CC3CC(CC(C3)C1)C2)c1cccc(OC(F)F)c1,"inconclusive: 11.2 µM [inhibitor, partial curve, poor fit]"
21,Cc1cc(C(=O)Cn2cnc3ccccc3c2=O)c(C)n1C1CC1,inactive

# An excerpt of these results, with bars between the fields.
row | SMILES | Potency
16 | O=C(COc1cc(Cl)ccc1Cl)Nc1ccc2[nH]c(=O)[nH]c2c1 | inconclusive: 14.1 µM [inhibitor, partial curve, poor fit]
17 | CCCCNC(=O)c1c(N)n(Cc2ccc3c(c2)OCO3)c2nc3ccccc3nc12 | inconclusive: 10.3 µM [inhibitor, partial curve, poor fit]
18 | Cc1oc(-c2ccc(Cl)cc2)nc1CS(=O)CC(=O)NCCCN1CCCC(C)C1 (configuration not stated) | inconclusive: 10 µM [inhibitor, partial curve, poor fit]
19 | Clc1ccc(SCCCCN2CCNCC2)cc1 | inconclusive: 5.17 µM [inhibitor, partial curve, poor fit]

# Reference: PubChem BioAssay AID540276 (National Center for Advancing Translational Sciences (NCATS), 2011)
